Data: patent US20060293242A1, “Transporting of taxoid derivatives through the blood brain barrier” (priority 2001, published 2006)

Settings: in water or in biological buffers

solubility (in words): very insoluble
SMILES: CC(=O)O[C@H]1C(=O)[C@@]2(C)[C@H]([C@H](OC(=O)c3ccccc3)[C@]3(O)C[C@H](OC(=O)[C@H](O)[C@@H](NC(=O)c4ccccc4)c4ccccc4)C(C)=C1C3(C)C)[C@]1(OC(C)=O)CO[C@@H]1C[C@@H]2O [Free Taxol, paclitaxel]
